In patent US20200340060A1, “COMPOSITIONS AND METHODS FOR IDENTIFYING AND TREATING LIVER DISEASES AND MONITORING TREATMENT OUTCOMES” (Gilead Sciences, Inc., priority 2017, published 2020):

B1: EMILIN1 (protein, UniProt Q9Y6C2 22-1016, looked up)
EMILIN-1: ASYPPRGFSLYTGSSGALSPGGPQAQIAPRPASRHRNWCAYVVTRTVSCVLEDGVETYVKYQPCAWGQPQCPQSIMYRRFLRPRYRVAYKTVTDMEWRCCQGYGGDDCAESPAPALGPASSTPRPLARPARPNLSGSSAGSPLSGLGGEGPGESEKVQQLEEQVQSLTKELQGLRGVLQGLSGRLAEDVQRAVETAFNGRQQPADAAARPGVHETLNEIQHQLQLLDTRVSTHDQELGHLNNHHGGSSSSGGSRAPAPASAPPGPSEELLRQLEQRLQESCSVCLAGLDGFRRQQQEDRERLRAMEKLLASVEERQRHLAGLAVGRRPPQECCSPELGRRLAELERRLDVVAGSVTVLSGRRGTELGGAAGQGGHPPGYTSLASRLSRLEDRFNSTLGPSEEQEESWPGAPGGLSHWLPAARGRLEQLGGLLANVSGELGGRLDLLEEQVAGAMQACGQLCSGAPGEQDSQVSEILSALERRVLDSEGQLRLVGSGLHTVEAAGEARQATLEGLQEVVGRLQDRVDAQDETAAEFTLRLNLTAARLGQLEGLLQAHGDEGCGACGGVQEELGRLRDGVERCSCPLLPPRGPGAGPGVGGPSRGPLDGFSVFGGSSGSALQALQGELSEVILSFSSLNDSLNELQTTVEGQGADLADLGATKDRIISEINRLQQEATEHATESEERFRGLEEGQAQAGQCPSLEGRLGRLEGVCERLDTVAGGLQGLREGLSRHVAGLWAGLRETNTTSQMQAALLEKLVGGQAGLGRRLGALNSSLQLLEDRLHQLSLKDLTGPAGEAGPPGPPGLQGPPGPAGPPGSPGKDGQEGPIGPPGPQGEQGVEGAPAAPVPQVAFSAALSLPRSEPGTVPFDRVLLNDGGYYDPETGVFTAPLAGRYLLSAVLTGHRHEKVEAVLSRSNQGVARVDSGGYEPEGLENKPVAESQPSPGTLGVFSLILPLQAGDTVCVDLVMGQLAHSEEPLTIFSGALLYGDPELEHA
B2: Activin RIB (protein, UniProt P36896 24-505, looked up)
Activin receptor type-1B: SGPRGVQALLCACTSCLQANYTCETDGACMVSIFNLDGMEHHVRTCIPKVELVPAGKPFYCLSSEDLRNTHCCYTDYCNRIDLRVPSGHLKEPEHPSMWGPVELVGIIAGPVFLLFLIIIIVFLVINYHQRVYHNRQRLDMEDPSCEMCLSKDKTLQDLVYDLSTSGSGSGLPLFVQRTVARTIVLQEIIGKGRFGEVWRGRWRGGDVAVKIFSSREERSWFREAEIYQTVMLRHENILGFIAADNKDNGTWTQLWLVSDYHEHGSLFDYLNRYTVTIEGMIKLALSAASGLAHLHMEIVGTQGKPGIAHRDLKSKNILVKKNGMCAIADLGLAVRHDAVTDTIDIAPNQRVGTKRYMAPEVLDETINMKHFDSFKCADIYALGLVYWEIARRCNSGGVHEEYQLPYYDLVPSDPSIEEMRKVVCDQKLRPNIPNWWQSYEALRVMGKMMRECWYANGAARLTALRIKKTLSQLSVQEDVKI
B3: MICA (protein, UniProt Q29983 24-383, looked up)
MHC class I …: EPHSLRYNLTVLSWDGSVQSGFLTEVHLDGQPFLRCDRQKCRAKPQGQWAEDVLGNKTWDRETRDLTGNGKDLRMTLAHIKDQKEGLHSLQEIRVCEIHEDNSTRSSQHFYYDGELFLSQNLETKEWTMPQSSRAQTLAMNVRNFLKEDAMKTKTHYHAMHADCLQELRRYLKSGVVLRRTVPPMVNVTRSEASEGNITVTCRASGFYPWNITLSWRQDGVSLSHDTQQWGDVLPDGNGTYQTWVATRICQGEEQRFTCYMEHSGNHSTHPVPSGKVLVLQSHWQTFHVSAVAAAAIFVIIIFYVRCCKKKTSAAEGPELVSLQVLDQHPVGTSDHRDATQLGFQPLMSDLGSTGSTEGA
B4: FTCD (protein, UniProt O95954 1-541, looked up)
Formimidoyltransferase-cyclode …: MSQLVECVPNFSEGKNQEVIDAISGAITQTPGCVLLDVDAGPSTNRTVYTFVGPPECVVEGALNAARVASRLIDMSRHQGEHPRMGALDVCPFIPVRGVSVDECVLCAQAFGQRLAEELDVPVYLYGEAARMDSRRTLPAIRAGEYEALPKKLQQADWAPDFGPSSFVPSWGATATGARKFLIAFNINLLGTKEQAHRIALNLREQGRGKDQPGRLKKVQGIGWYLDEKNLAQVSTNLLDFEVTALHTVYEETCREAQELSLPVVGSQLVGLVPLKALLDAAAFYCEKENLFILEEEQRIRLVVSRLGLDSLCPFSPKERIIEYLVPERGPERGLGSKSLRAFVGEVGARSAAPGGGSVAAAAAAMGAALGSMVGLMTYGRRQFQSLDTTMRRLIPPFREASAKLTTLVDADAEAFTAYLEAMRLPKNTPEEKDRRTAALQEGLRRAVSVPLTLAETVASLWPALQELARCGNLACRSDLQVAAKALEMGVFGAYFNVLINLRDITDEAFKDQIHHRVSSLLQEAKTQAALVLDCLETRQE
B5: IL-17D (protein, UniProt Q8TAD2 16-202, looked up)
Interleukin-17D: AGAPRAGRRPARPRGCADRPEELLEQLYGRLAAGVLSAFHHTLQLGPREQARNASCPAGGRPADRRFRPPTNLRSVSPWAYRISYDPARYPRYLPEAYCLCRGCLTGLFGEEDVRFRSAPVYMPTVVLRRTPACAGGRSVYTEAYVTIPVGCTCVPEPEKDADSINSSIDKQGAKLLLGPNDAPAGP
B6: SLAF5 (protein, UniProt Q9UIB8 22-345, looked up)
SLAM family member 5: KDSEIFTVNGILGESVTFPVNIQEPRQVKIIAWTSKTSVAYVTPGDSETAPVVTVTHRNYYERIHALGPNYNLVISDLRMEDAGDYKADINTQADPYTTTKRYNLQIYRRLGKPKITQSLMASVNSTCNVTLTCSVEKEEKNVTYNWSPLGEEGNVLQIFQTPEDQELTYTCTAQNPVSNNSDSISARQLCADIAMGFRTHHTGLLSVLAMFFLLVLILSSVFLFRLFKRRQGRIFPEGSCLNTFTKNPYAASKKTIYTYIMASRNTQPAESRIYDEILQSKVLPSKEEPVNTVYSEVQFADKMGKASTQDSKPPGTSSYEIVI
B7: CLC7A (protein, UniProt Q9BXN2 1-247, looked up)
C-type lectin domain family 7 …: MEYHPDLENLDEDGYTQLHFDSQSNTRIAVVSEKGSCAASPPWRLIAVILGILCLVILVIAVVLGTMAIWRSNSGSNTLENGYFLSRNKENHSQPTQSSLEDSVTPTKAVKTTGVLSSPCPPNWIIYEKSCYLFSMSLNSWDGSKRQCWQLGSNLLKIDSSNELGFIVKQVSSQPDNSFWIGLSRPQTEVPWLWEDGSTFSSNLFQIRTTATQENPSPNCVWIHVSVIYDQLCSVPSYSICEKKFSM
B8: DSC3 (protein, UniProt Q14574 136-896, looked up)
Desmocollin-3: RWAPIPCSMQENSLGPFPLFLQQVESDAAQNYTVFYSISGRGVDKEPLNLFYIERDTGNLFCTRPVDREEYDVFDLIAYASTADGYSADLPLPLPIRVEDENDNHPVFTEAIYNFEVLESSRPGTTVGVVCATDRDEPDTMHTRLKYSILQQTPRSPGLFSVHPSTGVITTVSHYLDREVVDKYSLIMKVQDMDGQFFGLIGTSTCIITVTDSNDNAPTFRQNAYEAFVEENAFNVEILRIPIEDKDLINTANWRVNFTILKGNENGHFKISTDKETNEGVLSVVKPLNYEENRQVNLEIGVNNEAPFARDIPRVTALNRALVTVHVRDLDEGPECTPAAQYVRIKENLAVGSKINGYKAYDPENRNGNGLRYKKLHDPKGWITIDEISGSIITSKILDREVETPKNELYNITVLAIDKDDRSCTGTLAVNIEDVNDNPPEILQEYVVICKPKMGYTDILAVDPDEPVHGAPFYFSLPNTSPEISRLWSLTKVNDTAARLSYQKNAGFQEYTIPITVKDRAGQAATKLLRVNLCECTHPTQCRATSRSTGVILGKWAILAILLGIALLFSVLLTLVCGVFGATKGKRFPEDLAQQNLIISNTEAPGDDRVCSANGFMTQTTNNSSQGFCGTMGSGMKNGGQETIEMMKGGNQTLESCRGAGHHHTLDSCRGGHTEVDNCRYTYSEWHSFTQPRLGEKLHRCNQNEDRMPSQDYVLTYNYEGRGSPAGSVGCCSEKQEEDGLDFLNNLEPKFITLAEACTKR
B9: WFKN2 (protein, UniProt Q8TEU8 35-576, looked up)
WAP, Kazal, immunoglobulin, …: LPPIRYSHAGICPNDMNPNLWVDAQSTCRRECETDQECETYEKCCPNVCGTKSCVAARYMDVKGKKGPVGMPKEATCDHFMCLQQGSECDIWDGQPVCKCKDRCEKEPSFTCASDGLTYYNRCYMDAEACSKGITLAVVTCRYHFTWPNTSPPPPETTMHPTTASPETPELDMAAPALLNNPVHQSVTMGETVSFLCDVVGRPRPEITWEKQLEDRENVVMRPNHVRGNVVVTNIAQLVIYNAQLQDAGIYTCTARNVAGVLRADFPLSVVRGHQAAATSESSPNGTAFPAAECLKPPDSEDCGEEQTRWHFDAQANNCLTFTFGHCHRNLNHFETYEACMLACMSGPLAACSLPALQGPCKAYAPRWAYNSQTGQCQSFVYGGCEGNGNNFESREACEESCPFPRGNQRCRACKPRQKLVTSFCRSDFVILGRVSELTEEPDSGRALVTVDEVLKDEKMGLKFLGQEPLEVTLLHVDWACPCPNVTVSEMPLIIMGEVDGGMAMLRPDSFVGASSARRVRKLREVMHKKTCDVLKEFLGLH

Legend:
[1] = ELISA assays of circulating NASH secretome candidates, AUROC analysis; parameters: species or system human; conditions: clinical endpoint MRIPDFF
[2] = SOMAscan serum proteomics in NASH subjects treated with selonsertib/simtuzumab, baseline and week 24; parameters: species or system human; conditions: serum protein marker level, week 24 vs baseline; for Median percent CHG at W24 in improver: CRN fibrosis stage improvers; for Median percent CHG at W24 in Non-improver: CRN fibrosis stage non-improvers

Molecule | Median percent CHG at W24 in Non-improver [1] [%] | Median percent CHG at W24 in improver [1] [%] | Median percent CHG at W24 in improver [2] [%] | Median percent CHG at W24 in Non-improver [2] [%]
B1 | −2.8 | −16.6 | – | –
B2 | – | – | 0.64 | −2.91
B3 | – | – | −5.58 | 1.73
B4 | – | – | −42.29 | −6.71
B5 | – | – | −1.33 | 0.85
B6 | – | – | −0.59 | −4.04
B7 | – | – | 3.23 | −3.19
B8 | – | – | 6.37 | 1.23
B9 | – | – | −2.98 | 0.47
